Reference: paper PMC7477090

By UniProt entry, the sequences of proteins in these tests, tags left out. Where a name states a change or a piece, a line headed by the entry shows the natural chain unless it says otherwise.
UniProt P19491: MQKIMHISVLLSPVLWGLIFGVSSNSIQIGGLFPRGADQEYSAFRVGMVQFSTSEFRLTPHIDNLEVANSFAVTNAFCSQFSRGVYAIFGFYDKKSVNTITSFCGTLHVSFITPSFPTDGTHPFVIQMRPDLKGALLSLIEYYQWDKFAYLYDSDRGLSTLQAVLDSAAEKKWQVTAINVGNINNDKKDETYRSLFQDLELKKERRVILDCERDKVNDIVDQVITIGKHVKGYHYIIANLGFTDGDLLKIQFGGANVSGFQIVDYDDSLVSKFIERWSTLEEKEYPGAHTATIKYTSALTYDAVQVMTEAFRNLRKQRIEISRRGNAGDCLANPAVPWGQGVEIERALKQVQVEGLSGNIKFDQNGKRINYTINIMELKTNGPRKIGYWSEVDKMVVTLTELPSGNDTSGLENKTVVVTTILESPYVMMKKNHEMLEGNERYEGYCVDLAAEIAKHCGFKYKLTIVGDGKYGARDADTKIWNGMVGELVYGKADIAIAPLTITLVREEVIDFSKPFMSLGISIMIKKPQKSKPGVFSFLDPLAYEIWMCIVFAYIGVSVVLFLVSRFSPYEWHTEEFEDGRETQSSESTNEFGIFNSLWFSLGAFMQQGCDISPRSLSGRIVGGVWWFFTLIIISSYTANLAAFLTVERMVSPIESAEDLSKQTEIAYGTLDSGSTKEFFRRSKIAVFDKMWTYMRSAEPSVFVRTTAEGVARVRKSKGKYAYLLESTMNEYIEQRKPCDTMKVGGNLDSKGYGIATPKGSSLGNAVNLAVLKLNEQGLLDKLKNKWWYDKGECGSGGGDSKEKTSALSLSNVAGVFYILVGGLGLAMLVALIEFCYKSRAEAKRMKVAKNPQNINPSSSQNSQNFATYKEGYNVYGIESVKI
UniProt P19490: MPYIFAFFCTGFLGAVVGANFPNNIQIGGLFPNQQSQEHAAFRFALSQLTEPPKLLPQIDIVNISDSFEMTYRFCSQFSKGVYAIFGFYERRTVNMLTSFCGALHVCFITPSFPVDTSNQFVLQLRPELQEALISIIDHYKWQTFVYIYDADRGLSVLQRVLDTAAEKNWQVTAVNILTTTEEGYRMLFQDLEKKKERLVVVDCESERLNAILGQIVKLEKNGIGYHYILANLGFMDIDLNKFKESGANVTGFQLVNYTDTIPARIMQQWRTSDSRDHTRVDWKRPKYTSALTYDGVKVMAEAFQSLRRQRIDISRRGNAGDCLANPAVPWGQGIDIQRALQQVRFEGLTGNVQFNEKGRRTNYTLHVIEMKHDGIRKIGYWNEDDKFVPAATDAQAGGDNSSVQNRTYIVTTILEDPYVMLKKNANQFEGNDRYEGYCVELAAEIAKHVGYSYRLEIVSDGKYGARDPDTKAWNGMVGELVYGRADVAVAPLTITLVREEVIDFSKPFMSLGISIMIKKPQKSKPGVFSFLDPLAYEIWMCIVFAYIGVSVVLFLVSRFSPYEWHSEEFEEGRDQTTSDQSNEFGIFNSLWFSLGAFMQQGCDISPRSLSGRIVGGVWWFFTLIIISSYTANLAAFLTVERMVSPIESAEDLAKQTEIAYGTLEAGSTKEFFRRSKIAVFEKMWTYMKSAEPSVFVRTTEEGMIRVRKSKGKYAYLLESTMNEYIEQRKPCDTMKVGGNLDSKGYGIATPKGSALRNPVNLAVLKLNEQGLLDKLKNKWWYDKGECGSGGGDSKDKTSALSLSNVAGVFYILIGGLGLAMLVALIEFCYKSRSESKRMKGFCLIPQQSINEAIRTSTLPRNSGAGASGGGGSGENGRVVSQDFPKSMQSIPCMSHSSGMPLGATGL
UniProt P19492: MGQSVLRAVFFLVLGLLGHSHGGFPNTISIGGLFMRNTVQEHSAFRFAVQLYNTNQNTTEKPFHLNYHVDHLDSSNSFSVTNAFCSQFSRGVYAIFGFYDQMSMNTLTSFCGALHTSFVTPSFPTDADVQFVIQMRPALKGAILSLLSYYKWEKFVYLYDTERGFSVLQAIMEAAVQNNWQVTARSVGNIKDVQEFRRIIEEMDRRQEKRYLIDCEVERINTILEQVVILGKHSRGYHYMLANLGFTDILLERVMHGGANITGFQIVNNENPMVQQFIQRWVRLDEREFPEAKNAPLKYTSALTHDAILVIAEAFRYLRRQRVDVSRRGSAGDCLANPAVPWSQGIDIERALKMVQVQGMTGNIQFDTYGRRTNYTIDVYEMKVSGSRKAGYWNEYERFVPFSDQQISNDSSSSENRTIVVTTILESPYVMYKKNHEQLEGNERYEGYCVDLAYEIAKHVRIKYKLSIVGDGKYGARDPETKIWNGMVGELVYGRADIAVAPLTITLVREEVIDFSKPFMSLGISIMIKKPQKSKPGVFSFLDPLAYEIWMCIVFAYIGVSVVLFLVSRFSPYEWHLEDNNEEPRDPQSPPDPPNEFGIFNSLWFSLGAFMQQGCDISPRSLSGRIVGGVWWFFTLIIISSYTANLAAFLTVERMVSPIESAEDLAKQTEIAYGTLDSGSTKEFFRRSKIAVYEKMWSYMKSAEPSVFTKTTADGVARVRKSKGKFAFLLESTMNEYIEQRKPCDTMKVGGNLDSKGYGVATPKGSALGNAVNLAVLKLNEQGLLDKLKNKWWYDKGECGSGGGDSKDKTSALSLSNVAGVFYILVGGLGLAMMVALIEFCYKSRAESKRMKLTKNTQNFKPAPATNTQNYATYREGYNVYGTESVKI

Molecular target: T1, myc-tagged porcupine O-acyltransferase (PORCN) (UniProt Q9JJJ7)
T1 sequence: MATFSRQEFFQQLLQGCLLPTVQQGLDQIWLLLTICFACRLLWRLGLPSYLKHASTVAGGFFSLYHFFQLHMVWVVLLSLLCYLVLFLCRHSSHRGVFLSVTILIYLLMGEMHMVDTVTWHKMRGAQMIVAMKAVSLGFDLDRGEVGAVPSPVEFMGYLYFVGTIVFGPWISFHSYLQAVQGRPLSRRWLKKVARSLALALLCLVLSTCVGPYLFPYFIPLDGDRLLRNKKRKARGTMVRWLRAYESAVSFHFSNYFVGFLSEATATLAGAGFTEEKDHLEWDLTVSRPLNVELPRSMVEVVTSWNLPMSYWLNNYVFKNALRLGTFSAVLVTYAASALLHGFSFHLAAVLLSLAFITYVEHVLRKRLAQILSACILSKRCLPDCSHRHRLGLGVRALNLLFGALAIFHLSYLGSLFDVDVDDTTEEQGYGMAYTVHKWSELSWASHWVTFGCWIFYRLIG
Test: co-IP; HEK293T cells co-transfected with a GluA construct and myc-PORCN; lysis in 50 mM Tris-HCl, 1 mM EDTA, 150 mM NaCl, 1% CA-630; anti-myc magnetic beads, 12 h at 4°C, four washes; GluA detected by immunoblot

binding, binds:
GluA2-Δ824 (from UniProt P19491) (receptor)
GluA2-ΔC (from UniProt P19491) (receptor)
GluA1-Δ824 (from UniProt P19490) (receptor)
GluA2-ΔATD (from UniProt P19491) (receptor)
GluA3-ΔATD (from UniProt P19492) (receptor)
GluA3-Δ824 (from UniProt P19492) (receptor)
GluA3-ΔMPR (from UniProt P19492) (receptor)
GluA1-ΔC (from UniProt P19490) (receptor)
GluA1-ΔATD (from UniProt P19490) (receptor)

These are yes or no findings as the source states them, for the method shown. In cells and extracts the contact can be indirect. Binding can be weak; no strength is given. Tags and fused reporters may be left off the sequences shown.
